From PMC9249222
These are yes or no findings as the source states them, for the method shown. Some results given as binding are weak or reduced against the parent protein; the word gives no strength.

Protein sequences, listed by entry. Tags and fused reporters are not part of them. Lines headed by an entry give the natural chain unless they say otherwise; changes in a name come on top.
UniProt A0A0D1DWZ5: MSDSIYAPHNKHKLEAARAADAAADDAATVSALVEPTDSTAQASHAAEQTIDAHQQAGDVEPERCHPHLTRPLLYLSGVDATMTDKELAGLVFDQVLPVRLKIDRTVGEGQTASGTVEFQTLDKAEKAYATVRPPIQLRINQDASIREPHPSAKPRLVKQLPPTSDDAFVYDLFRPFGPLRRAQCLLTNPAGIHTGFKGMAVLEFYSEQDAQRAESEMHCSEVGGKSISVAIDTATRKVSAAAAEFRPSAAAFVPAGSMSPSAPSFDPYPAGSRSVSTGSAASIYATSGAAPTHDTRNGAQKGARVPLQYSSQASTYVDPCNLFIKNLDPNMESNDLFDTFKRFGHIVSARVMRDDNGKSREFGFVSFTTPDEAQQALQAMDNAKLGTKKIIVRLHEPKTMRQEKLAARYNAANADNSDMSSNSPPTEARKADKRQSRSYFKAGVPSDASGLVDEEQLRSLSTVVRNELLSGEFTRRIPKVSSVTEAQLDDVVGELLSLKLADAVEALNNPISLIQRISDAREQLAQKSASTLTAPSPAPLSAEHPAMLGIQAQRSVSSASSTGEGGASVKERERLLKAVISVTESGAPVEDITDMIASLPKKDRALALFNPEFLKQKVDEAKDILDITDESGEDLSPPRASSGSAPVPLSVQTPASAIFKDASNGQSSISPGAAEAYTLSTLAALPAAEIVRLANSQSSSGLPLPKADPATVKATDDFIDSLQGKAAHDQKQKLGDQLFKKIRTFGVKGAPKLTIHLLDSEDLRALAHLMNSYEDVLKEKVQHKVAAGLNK

Assays:
[1] = biological target: G-Rrm4 (Ustilago maydis); assay: SAXS; 0.6 mg/ml protein, 10°C, buffer E (20 mM HEPES pH 8.0, 200 mM NaCl, 1 mM β-ME); both purified
[2] = biological target: H-Rrm4-NT4 (Ustilago maydis); assay: as above
[3] = biological target: Upa1-Gfp (Gal4 DNA-binding domain fusion) (Ustilago maydis); assay: two-hybrid; Matchmaker 3, S. cerevisiae AH109; Upa1 versions fused to the Gal4p DNA-binding domain, Rrm4 versions to the activation domain; growth on SD without leucine, tryptophan, histidine and adenine, 28°C, 2 days

G-Rrm4 (from UniProt A0A0D1DWZ5 1-792)
binding [1]: no binding (tested: 0.6 mg/ml)

H-Rrm4-NT4 (from UniProt A0A0D1DWZ5 421-792) (domain or fragment)
binding [2]: no binding (tested: 0.6 mg/ml)

Rrm4-Kat (Gal4 activation domain fusion) (from UniProt A0A0D1DWZ5 1-792)
binding [3]: binds
